Experimental data from article doi:10.1101/2021.05.01.442081.
The exact form of at least one protein or probe is not confirmed. Negatives hold for the conditions tested.

The chains behind the UniProt entries cited, without tags or fusion partners. Where a name states a change or a piece, a line headed by the entry shows the natural chain unless it says otherwise.
UniProt Q61060: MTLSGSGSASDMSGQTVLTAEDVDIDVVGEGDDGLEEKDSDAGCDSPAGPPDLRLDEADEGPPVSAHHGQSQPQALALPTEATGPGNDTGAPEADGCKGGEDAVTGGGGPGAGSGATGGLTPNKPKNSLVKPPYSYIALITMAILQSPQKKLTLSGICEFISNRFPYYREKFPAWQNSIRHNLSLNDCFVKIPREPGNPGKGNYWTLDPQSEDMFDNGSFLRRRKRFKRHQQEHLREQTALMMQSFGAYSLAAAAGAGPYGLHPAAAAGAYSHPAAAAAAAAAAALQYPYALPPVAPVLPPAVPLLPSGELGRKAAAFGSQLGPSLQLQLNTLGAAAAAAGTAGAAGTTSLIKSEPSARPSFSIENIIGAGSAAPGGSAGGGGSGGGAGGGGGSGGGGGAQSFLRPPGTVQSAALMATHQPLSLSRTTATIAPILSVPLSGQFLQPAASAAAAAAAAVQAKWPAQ

What was measured:
[1] = molecular target: GST-FOXD3 M2 FVK>VAM (Mus musculus) (UniProt Q61060); experiment: EMSA; conditions: 0-5 uM protein, 50 nM DNA, residues 1-465
[2] = molecular target: GST-FOXD3 M1 YSY>RAD (Mus musculus) (UniProt Q61060); experiment: EMSA; conditions: 0-5 uM protein, 50 nM DNA, residues 1-465

“CTGAAAATCATGGAAAATGAGAAACATCCACTTGA (double strand) [MSR]”: no binding [1]; no binding [2].
